Reference: US20250115671A1 (BEIGENE, published 2025)
No constants are given. Whether binding was seen depends on the method and setting. Some results given as binding are weak or reduced against the parent protein; the word gives no strength.

Amino acid sequences for entries named in this document (tags omitted). A change or cut given only in a name is not applied to a line headed by its entry.
UniProt P51685: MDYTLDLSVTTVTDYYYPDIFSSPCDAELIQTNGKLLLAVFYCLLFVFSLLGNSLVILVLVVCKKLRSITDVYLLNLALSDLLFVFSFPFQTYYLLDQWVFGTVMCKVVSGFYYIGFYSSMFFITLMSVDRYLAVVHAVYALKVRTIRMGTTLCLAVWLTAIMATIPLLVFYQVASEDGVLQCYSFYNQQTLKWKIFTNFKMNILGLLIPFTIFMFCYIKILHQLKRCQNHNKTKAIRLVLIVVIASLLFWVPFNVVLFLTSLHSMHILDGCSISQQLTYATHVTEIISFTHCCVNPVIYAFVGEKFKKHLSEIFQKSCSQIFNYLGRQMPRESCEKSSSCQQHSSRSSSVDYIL
UniProt P56484: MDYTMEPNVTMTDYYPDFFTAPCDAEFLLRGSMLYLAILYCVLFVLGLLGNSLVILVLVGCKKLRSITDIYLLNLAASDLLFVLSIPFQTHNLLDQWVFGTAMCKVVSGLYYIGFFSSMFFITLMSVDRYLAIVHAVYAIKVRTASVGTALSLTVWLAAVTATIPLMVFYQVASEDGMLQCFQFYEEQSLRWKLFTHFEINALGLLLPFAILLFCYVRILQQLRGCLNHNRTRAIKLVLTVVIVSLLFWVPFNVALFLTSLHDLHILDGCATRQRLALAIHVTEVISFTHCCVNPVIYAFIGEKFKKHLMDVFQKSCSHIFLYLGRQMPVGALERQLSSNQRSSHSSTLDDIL

What was measured:
[1] = target: CCR8_Ch1 (mouse; human) (UniProt P51685); test: flow cytometry on transfected Expi293 cells, serial dilution
[2] = target: CCR8_Ch5 (human; mouse) (UniProt P56484); test: as above
[3] = target: human CCR8 N-terminal domain-mouse Fc tag fusion protein (human (CCR8 part), mouse IgG2a Fc); test: ELISA, plate coated with human CCR8 N-terminal domain-Fc fusion

- binding [1]: binds
- binding [2]: binds
- binding [3]: binds
B1: Ch305 (antibody, V domains shown)
VH: QVQMKQSGPSLVQPSQSLSITCTVSGFSLTSYGVHWVRQSPGKGLEWLGVIWRGGTTDYNAAFMSRLSFTKDSSKSQVFFKLNSLQADDTAIYYCAKNRVTTVVAPNFYAMDYWGQGTSVTVSS
VL: DIVMTQSPSSLAVSVGEKVTMSCKSSQSLLYSGNQKNYLAWYQQKPGQSPKLLIYWASTRKSGVPDRLTGSGSGTDFTLTISSVKAEDLAAYYCQQYYTYPLTFGAGTRLEIK
